These results are taken from paper PMC10761734.

Protein sequences, listed by entry. Tags and fused reporters are not part of them.
UniProt Q86T03: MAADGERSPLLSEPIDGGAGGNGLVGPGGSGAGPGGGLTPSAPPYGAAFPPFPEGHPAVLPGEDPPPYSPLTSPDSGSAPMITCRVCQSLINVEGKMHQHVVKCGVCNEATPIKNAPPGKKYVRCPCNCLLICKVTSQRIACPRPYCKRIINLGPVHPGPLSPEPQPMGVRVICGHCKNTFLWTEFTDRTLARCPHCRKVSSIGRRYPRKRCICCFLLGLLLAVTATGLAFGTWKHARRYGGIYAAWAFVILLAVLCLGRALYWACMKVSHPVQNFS

Results are given in words; binding and its absence hold for the method and conditions named. Binding seen in cells or lysates may run through a third protein. A yes stands for co-enrichment or nearness to the bait. Other partners may have been found.

The labels stand for the following.
B1: VPS41 (protein, UniProt P49754 1-854)
chain: MAEAEEQETGSLEESTDESEEEESEEEPKLKYERLSNGVTEILQKDAASCMTVHDKFLALGTHYGKVYLLDVQGNITQKFDVSPVKINQISLDESGEHMGVCSEDGKVQVFGLYSGEEFHETFDCPIKIIAVHPHFVRSSCKQFVTGGKKLLLFERSWMNRWKSAVLHEGEGNIRSVKWRGHLIAWANNMGVKIFDIISKQRITNVPRDDISLRPDMYPCSLCWKDNVTLIIGWGTSVKVCSVKERHASEMRDLPSRYVEIVSQFETEFYISGLAPLCDQLVVLSYVKEISEKTEREYCARPRLDIIQPLSETCEEISSDALTVRGFQENECRDYHLEYSEGESLFYIVSPRDVVVAKERDQDDHIDWLLEKKKYEEALMAAEISQKNIKRHKILDIGLAYINHLVERGDYDIAARKCQKILGKNAALWEYEVYKFKEIGQLKAISPYLPRGDPVLKPLIYEMILHEFLESDYEGFATLIREWPGDLYNNSVIVQAVRDHLKKDSQNKTLLKTLAELYTYDKNYGNALEIYLTLRHKDVFQLIHKHNLFSSIKDKIVLLMDFDSEKAVDMLLDNEDKISIKKVVEELEDRPELQHVYLHKLFKRDHHKGQRYHEKQISLYAEYDRPNLLPFLRDSTHCPLEKALEICQQRNFVEETVYLLSRMGNSRSALKMIMEELHDVDKAIEFAKEQDDGELWEDLILYSIDKPPFITGLLNNIGTHVDPILLIHRIKEGMEIPNLRDSLVKILQDYNLQILLREGCKKILVADSLSLLKKMHRTQMKGVLVDEENICESCLSPILPSDAAKPFSVVVFHCRHMFHKECLPMPSMNSAAQFCNICSAKNRGPGSAILEMKK
B2: VPS39 (protein, UniProt Q96JC1 1-886)
chain: MHDAFEPVPILEKLPLQIDCLAAWEEWLLVGTKQGHLLLYRIRKDVVPADVASPESGSCNRFEVTLEKSNKNFSKKIQQIHVVSQFKILVSLLENNIYVHDLLTFQQITTVSKAKGASLFTCDLQHTETGEEVLRMCVAVKKKLQLYFWKDREFHELQGDFSVPDVPKSMAWCENSICVGFKRDYYLIRVDGKGSIKELFPTGKQLEPLVAPLADGKVAVGQDDLTVVLNEEGICTQKCALNWTDIPVAMEHQPPYIIAVLPRYVEIRTFEPRLLVQSIELQRPRFITSGGSNIIYVASNHFVWRLIPVPMATQIQQLLQDKQFELALQLAEMKDDSDSEKQQQIHHIKNLYAFNLFCQKRFDESMQVFAKLGTDPTHVMGLYPDLLPTDYRKQLQYPNPLPVLSGAELEKAHLALIDYLTQKRSQLVKKLNDSDHQSSTSPLMEGTPTIKSKKKLLQIIDTTLLKCYLHTNVALVAPLLRLENNHCHIEESEHVLKKAHKYSELIILYEKKGLHEKALQVLVDQSKKANSPLKGHERTVQYLQHLGTENLHLIFSYSVWVLRDFPEDGLKIFTEDLPEVESLPRDRVLGFLIENFKGLAIPYLEHIIHVWEETGSRFHNCLIQLYCEKVQGLMKEYLLSFPAGKTPVPAGEEEGELGEYRQKLLMFLEISSYYDPGRLICDFPFDGLLEERALLLGRMGKHEQALFIYVHILKDTRMAEEYCHKHYDRNKDGNKDVYLSLLRMYLSPPSIHCLGPIKLELLEPKANLQAALQVLELHHSKLDTTKALNLLPANTQINDIRIFLEKVLEENAQKKRFNQVLKNLLHAEFLRVQEERILHQQVKCIITEEKVCMVCKKKIGNSAFARYPNGVVVHYFCSKEVNPADT
B3: JIP4 (protein, UniProt O60271 1-1321)
chain: MELEDGVVYQEEPGGSGAVMSERVSGLAGSIYREFERLIGRYDEEVVKELMPLVVAVLENLDSVFAQDQEHQVELELLRDDNEQLITQYEREKALRKHAEEKFIEFEDSQEQEKKDLQTRVESLESQTRQLELKAKNYADQISRLEEREAELKKEYNALHQRHTEMIHNYMEHLERTKLHQLSGSDQLESTAHSRIRKERPISLGIFPLPAGDGLLTPDAQKGGETPGSEQWKFQELSQPRSHTSLKVSNSPEPQKAVEQEDELSDVSQGGSKATTPASTANSDVATIPTDTPLKEENEGFVKVTDAPNKSEISKHIEVQVAQETRNVSTGSAENEEKSEVQAIIESTPELDMDKDLSGYKGSSTPTKGIENKAFDRNTESLFEELSSAGSGLIGDVDEGADLLGMGREVENLILENTQLLETKNALNIVKNDLIAKVDELTCEKDVLQGELEAVKQAKLKLEEKNRELEEELRKARAEAEDARQKAKDDDDSDIPTAQRKRFTRVEMARVLMERNQYKERLMELQEAVRWTEMIRASRENPAMQEKKRSSIWQFFSRLFSSSSNTTKKPEPPVNLKYNAPTSHVTPSVKKRSSTLSQLPGDKSKAFDFLSEETEASLASRREQKREQYRQVKAHVQKEDGRVQAFGWSLPQKYKQVTNGQGENKMKNLPVPVYLRPLDEKDTSMKLWCAVGVNLSGGKTRDGGSVVGASVFYKDVAGLDTEGSKQRSASQSSLDKLDQELKEQQKELKNQEELSSLVWICTSTHSATKVLIIDAVQPGNILDSFTVCNSHVLCIASVPGARETDYPAGEDLSESGQVDKASLCGSMTSNSSAETDSLLGGITVVGCSAEGVTGAATSPSTNGASPVMDKPPEMEAENSEVDENVPTAEEATEATEGNAGSAEDTVDISQTGVYTEHVFTDPLGVQIPEDLSPVYQSSNDSDAYKDQISVLPNEQDLVREEAQKMSSLLPTMWLGAQNGCLYVHSSVAQWRKCLHSIKLKDSILSIVHVKGIVLVALADGTLAIFHRGVDGQWDLSNYHLLDLGRPHHSIRCMTVVHDKVWCGYRNKIYVVQPKAMKIEKSFDAHPRKESQVRQLAWVGDGVWVSIRLDSTLRLYHAHTYQHLQDVDIEPYVSKMLGTGKLGFSFVRITALMVSCNRLWVGTGNGVIISIPLTETNKTSGVPGNRPGSVIRVYGDENSDKVTPGTFIPYCSMAHAQLCFHGHRDAVKFFVAVPGQVISPQSSSSGTDLTGDKAGPSAQEPGSQTPLKSMLVISGGEGYIDFRMGDEGGESELLGEDLPLEPSVTKAERSHLIVWQVMYGNE
B4: VPS18 (protein, UniProt Q9P253 1-973)
chain: MASILDEYENSLSRSAVLQPGCPSVGIPHSGYVNAQLEKEVPIFTKQRIDFTPSERITSLVVSSNQLCMSLGKDTLLRIDLGKANEPNHVELGRKDDAKVHKMFLDHTGSHLLIALSSTEVLYVNRNGQKVRPLARWKGQLVESVGWNKALGTESSTGPILVGTAQGHIFEAELSASEGGLFGPAPDLYFRPLYVLNEEGGPAPVCSLEAERGPDGRSFVIATTRQRLFQFIGRAAEGAEAQGFSGLFAAYTDHPPPFREFPSNLGYSELAFYTPKLRSAPRAFAWMMGDGVLYGALDCGRPDSLLSEERVWEYPEGVGPGASPPLAIVLTQFHFLLLLADRVEAVCTLTGQVVLRDHFLEKFGPLKHMVKDSSTGQLWAYTERAVFRYHVQREARDVWRTYLDMNRFDLAKEYCRERPDCLDTVLAREADFCFRQRRYLESARCYALTQSYFEEIALKFLEARQEEALAEFLQRKLASLKPAERTQATLLTTWLTELYLSRLGALQGDPEALTLYRETKECFRTFLSSPRHKEWLFASRASIHELLASHGDTEHMVYFAVIMQDYERVVAYHCQHEAYEEALAVLARHRDPQLFYKFSPILIRHIPRQLVDAWIEMGSRLDARQLIPALVNYSQGGEVQQVSQAIRYMEFCVNVLGETEQAIHNYLLSLYARGRPDSLLAYLEQAGASPHRVHYDLKYALRLCAEHGHHRACVHVYKVLELYEEAVDLALQVDVDLAKQCADLPEEDEELRKKLWLKIARHVVQEEEDVQTAMACLASCPLLKIEDVLPFFPDFVTIDHFKEAICSSLKAYNHHIQELQREMEEATASAQRIRRDLQELRGRYGTVEPQDKCATCDFPLLNRPFYLFLCGHMFHADCLLQAVRPGLPAYKQARLEELQRKLGAAPPPAKGSARAKEAEGGAATAGPSREQLKADLDELVAAECVYCGELMIRSIDRPFIDPQRYEEEQLSWL
B5: CHMP4B (protein, UniProt Q9H444 1-224)
chain: MSVFGKLFGAGGGKAGKGGPTPQEAIQRLRDTEEMLSKKQEFLEKKIEQELTAAKKHGTKNKRAALQALKRKKRYEKQLAQIDGTLSTIEFQREALENANTNTEVLKNMGYAAKAMKAAHDNMDIDKVDELMQDIADQQELAEEISTAISKPVGFGEEFDEDELMAELEELEQEELDKNLLEISGPETVPLPNVPSIALPSKPAKKKEEEDDDMKELENWAGSM
B6: VPS11 (protein, UniProt Q9H270 1-941)
chain: MAAYLQWRRFVFFDKELVKEPLSNDGAAPGATPASGSAASKFLCLPPGITVCDSGRGSLVFGDMEGQIWFLPRSLQLTGFQAYKLRVTHLYQLKQHNILASVGEDEEGINPLVKIWNLEKRDGGNPLCTRIFPAIPGTEPTVVSCLTVHENLNFMAIGFTDGSVTLNKGDITRDRHSKTQILHKGNYPVTGLAFRQAGKTTHLFVVTTENVQSYIVSGKDYPRVELDTHGCGLRCSALSDPSQDLQFIVAGDECVYLYQPDERGPCFAFEGHKLIAHWFRGYLIIVSRDRKVSPKSEFTSRDSQSSDKQILNIYDLCNKFIAYSTVFEDVVDVLAEWGSLYVLTRDGRVHALQEKDTQTKLEMLFKKNLFEMAINLAKSQHLDSDGLAQIFMQYGDHLYSKGNHDGAVQQYIRTIGKLEPSYVIRKFLDAQRIHNLTAYLQTLHRQSLANADHTTLLLNCYTKLKDSSKLEEFIKKKSESEVHFDVETAIKVLRQAGYYSHALYLAENHAHHEWYLKIQLEDIKNYQEALRYIGKLPFEQAESNMKRYGKILMHHIPEQTTQLLKGLCTDYRPSLEGRSDREAPGCRANSEEFIPIFANNPRELKAFLEHMSEVQPDSPQGIYDTLLELRLQNWAHEKDPQVKEKLHAEAISLLKSGRFCDVFDKALVLCQMHDFQDGVLYLYEQGKLFQQIMHYHMQHEQYRQVISVCERHGEQDPSLWEQALSYFARKEEDCKEYVAAVLKHIENKNLMPPLLVVQTLAHNSTATLSVIRDYLVQKLQKQSQQIAQDELRVRRYREETTRIRQEIQELKASPKIFQKTKCSICNSALELPSVHFLCGHSFHQHCFESYSESDADCPTCLPENRKVMDMIRAQEQKRDLHDQFQHQLKCSNDSFSVIADYFGRGVFNKLTLLTDPPTARLTSSLEAGLQRDLLMHSRRGT
B7: VPS16 (protein, UniProt Q9H269 1-839)
chain: MDCYTANWNPLGDSAFYRKYELYSMDWDLKEELRDCLVAAAPYGGPIALLRNPWRKEKAASVRPVLDIYSASGMPLASLLWKSGPVVSLGWSAEEELLCVQEDGAVLVYGLHGDFRRHFSMGNEVLQNRVLDARIFHTEFGSGVAILTGAHRFTLSANVGDLKLRRMPEVPGLQSAPSCWTVLCQDRVAHILLAVGPDLYLLDHAACSAVTPPGLAPGVSSFLQMAVSFTYRHLALFTDTGYIWMGTASLKEKLCEFNCNIRAPPKQMVWCSRPRSKERAVVVAWERRLMVVGDAPESIQFVLDEDSYLVPELDGVRIFSRSTHEFLHEVPAASEEIFKIASMAPGALLLEAQKEYEKESQKADEYLREIQELGQLTQAVQQCIEAAGHEHQPDMQKSLLRAASFGKCFLDRFPPDSFVHMCQDLRVLNAVRDYHIGIPLTYSQYKQLTIQVLLDRLVLRRLYPLAIQICEYLRLPEVQGVSRILAHWACYKVQQKDVSDEDVARAINQKLGDTPGVSYSDIAARAYGCGRTELAIKLLEYEPRSGEQVPLLLKMKRSKLALSKAIESGDTDLVFTVLLHLKNELNRGDFFMTLRNQPMALSLYRQFCKHQELETLKDLYNQDDNHQELGSFHIRASYAAEERIEGRVAALQTAADAFYKAKNEFAAKATEDQMRLLRLQRRLEDELGGQFLDLSLHDTVTTLILGGHNKRAEQLARDFRIPDKRLWWLKLTALADLEDWEELEKFSKSKKSPIGYLPFVEICMKQHNKYEAKKYASRVGPEQKVKALLLVGDVAQAADVAIEHRNEAELSLVLSHCTGATDGATADKIQRARAQAQKK

The assay concerns the target TMEM55B-GFP-WT full length (FL) (human) (UniProt Q86T03). Nature of the assay: affinity purification with mass spectrometry; U2OS cells infected with adenovirus expressing TMEM55B-WT-GFP or TMEM55B-P66A-GFP, with or without 300 uM NaAsO2 for 2 h; lysates immunoprecipitated with GFP beads, SDS-PAGE, gel bands digested, Orbitrap Fusion Lumos.
B1: the binding result is “binds”.

As to B2, the binding result is given as “binds”.

Turning to B3, the binding entry is “binds”.

Consider B4, for which the binding result is reported as “binds”.

In the case of B5, the binding entry was “binds”.

As for B6, the binding entry is given as “binds”.

On to B7, for which the binding result was “binds”.
